Assay results reported in PMC3334993.
These are yes or no findings as the source states them, for the method shown. Binding seen in cells or lysates may run through a third protein. Some results given as binding are weak or reduced against the parent protein; the word gives no strength.

Amino acid sequences for entries named in this document (tags omitted). A change or cut given only in a name is not applied to a line headed by its entry. Chains listed by the source or under a name are the forms on record and can include a tag or linker. Residues count along the entry.
UniProt P08670: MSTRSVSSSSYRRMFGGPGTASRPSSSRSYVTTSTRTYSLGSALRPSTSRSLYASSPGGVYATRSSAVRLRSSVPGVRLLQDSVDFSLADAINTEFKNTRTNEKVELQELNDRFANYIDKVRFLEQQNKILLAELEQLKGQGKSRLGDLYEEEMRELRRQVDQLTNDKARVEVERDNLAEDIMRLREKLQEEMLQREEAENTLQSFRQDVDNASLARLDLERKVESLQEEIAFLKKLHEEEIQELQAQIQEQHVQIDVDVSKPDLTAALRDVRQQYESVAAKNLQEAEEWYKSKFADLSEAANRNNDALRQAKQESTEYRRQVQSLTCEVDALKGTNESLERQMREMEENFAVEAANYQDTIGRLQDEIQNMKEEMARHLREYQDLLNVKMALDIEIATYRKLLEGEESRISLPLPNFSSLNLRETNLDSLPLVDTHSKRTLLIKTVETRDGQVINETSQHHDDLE
GFP-VH (vimentin head domain fused to GFP): residues 1-95 of P08670
UniProt Q04206: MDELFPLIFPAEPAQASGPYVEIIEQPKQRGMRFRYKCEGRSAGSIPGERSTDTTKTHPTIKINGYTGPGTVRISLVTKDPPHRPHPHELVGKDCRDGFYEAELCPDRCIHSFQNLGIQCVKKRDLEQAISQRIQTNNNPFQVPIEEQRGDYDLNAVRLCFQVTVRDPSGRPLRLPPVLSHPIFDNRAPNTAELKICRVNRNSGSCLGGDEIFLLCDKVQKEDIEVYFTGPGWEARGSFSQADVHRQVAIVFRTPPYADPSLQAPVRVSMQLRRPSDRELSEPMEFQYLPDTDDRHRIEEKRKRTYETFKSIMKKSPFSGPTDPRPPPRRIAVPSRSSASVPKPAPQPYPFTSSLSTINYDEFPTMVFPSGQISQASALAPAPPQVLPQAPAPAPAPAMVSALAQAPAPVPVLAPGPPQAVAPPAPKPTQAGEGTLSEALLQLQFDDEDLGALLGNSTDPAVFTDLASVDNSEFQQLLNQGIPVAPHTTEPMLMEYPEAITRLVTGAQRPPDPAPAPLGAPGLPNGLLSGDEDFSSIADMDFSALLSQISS
UniProt P25963: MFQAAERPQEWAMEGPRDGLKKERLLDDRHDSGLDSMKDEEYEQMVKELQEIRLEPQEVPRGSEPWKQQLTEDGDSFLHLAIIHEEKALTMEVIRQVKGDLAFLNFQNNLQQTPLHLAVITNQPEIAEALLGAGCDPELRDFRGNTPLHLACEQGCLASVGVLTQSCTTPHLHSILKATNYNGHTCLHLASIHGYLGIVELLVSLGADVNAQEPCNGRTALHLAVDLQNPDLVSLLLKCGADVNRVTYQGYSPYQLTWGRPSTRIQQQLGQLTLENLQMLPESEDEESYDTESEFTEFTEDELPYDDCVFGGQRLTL
UniProt P07437: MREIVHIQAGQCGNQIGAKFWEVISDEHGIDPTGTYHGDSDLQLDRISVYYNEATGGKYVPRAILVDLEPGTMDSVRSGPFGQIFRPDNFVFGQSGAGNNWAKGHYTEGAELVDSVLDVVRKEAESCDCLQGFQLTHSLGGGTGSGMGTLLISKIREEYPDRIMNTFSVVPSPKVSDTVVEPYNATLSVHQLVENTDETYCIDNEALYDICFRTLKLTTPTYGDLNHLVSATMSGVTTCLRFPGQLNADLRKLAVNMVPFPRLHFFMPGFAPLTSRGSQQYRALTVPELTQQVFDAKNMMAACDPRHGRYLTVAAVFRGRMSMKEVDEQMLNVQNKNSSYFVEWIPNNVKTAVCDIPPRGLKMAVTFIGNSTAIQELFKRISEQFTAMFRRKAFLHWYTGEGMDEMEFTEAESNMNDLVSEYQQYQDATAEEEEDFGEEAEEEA

How the values were obtained:
[1] = target: vimentin (human (endogenous in HBMEC)) (UniProt P08670); assay: co-IP
[2] = target: His–vimentin (human) (UniProt P08670); assay: pull-down; Ni-NTA resin with or without (control) purified native His–vimentin incubated with total cell lysates from HBMEC overnight at 4°C, washed five times; immunoblot for His tag, vimentin (V9) and IκBα; only the target purified
[3] = target: GFP-VH (vimentin head domain fused to GFP) (human) (UniProt P08670); assay: co-IP
[4] = target: Transcription factor p65 [NF-κB (p65)] (human (endogenous in HBMEC)) (UniProt Q04206); assay: co-IP

| binding [1] | binding [2] | binding [3] | binding [4] | Substance |
| --- | --- | --- | --- | --- |
| binds | binds | – | – | NF-kappa-B inhibitor alpha [IκBα] (from UniProt P25963 1-317) |
| binds | – | binds | – | Transcription factor p65 [NF-κB (p65)] (from UniProt Q04206 1-551) |
| binds | – | binds | binds | Tubulin beta chain [β-tubulin] (from UniProt P07437 1-444) |
| – | – | – | binds | vimentin (from UniProt P08670 1-466) |
